The target in experiment [1] is T1, GFP-tagged DAPk1 Ca2+-calmodulin (CaM) domain (aa 275-650) (UniProt P53355).
T1 sequence: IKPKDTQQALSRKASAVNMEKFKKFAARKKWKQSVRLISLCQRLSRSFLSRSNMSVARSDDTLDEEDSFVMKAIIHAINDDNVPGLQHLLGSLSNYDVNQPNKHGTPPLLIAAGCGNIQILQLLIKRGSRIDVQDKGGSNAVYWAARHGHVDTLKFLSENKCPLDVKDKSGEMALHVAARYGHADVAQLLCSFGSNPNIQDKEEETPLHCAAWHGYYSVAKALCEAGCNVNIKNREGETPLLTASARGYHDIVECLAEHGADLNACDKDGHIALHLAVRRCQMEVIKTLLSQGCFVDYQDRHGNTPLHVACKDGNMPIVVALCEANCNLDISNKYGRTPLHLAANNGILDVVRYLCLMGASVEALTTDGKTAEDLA
Description: co-IP; 293T cells transfected with GFP-tagged DAPk1 deletion constructs and infected with HA-Ad-Bik; immunoprecipitation with anti-HA or anti-GFP antibodies; blots for GFP, HA, activated Bak (Fig. 3c).

In experiment [2] the target is T2, GFP-tagged DAPk1 kinase domain (aa 1-274) (UniProt P53355).
T2 sequence: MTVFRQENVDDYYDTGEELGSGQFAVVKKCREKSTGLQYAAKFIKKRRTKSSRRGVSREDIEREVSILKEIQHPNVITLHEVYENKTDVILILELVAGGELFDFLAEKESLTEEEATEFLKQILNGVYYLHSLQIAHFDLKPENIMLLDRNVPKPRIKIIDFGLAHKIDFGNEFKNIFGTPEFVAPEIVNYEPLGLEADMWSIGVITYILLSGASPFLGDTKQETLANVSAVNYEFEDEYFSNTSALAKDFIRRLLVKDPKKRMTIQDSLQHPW
The experiment is described as above.

In experiment [3] the target is Flag-tagged DAPk1 (UniProt P53355). The experiment in a line: co-IP; 293T cells transfected with Flag-DAPk1 or Flag-DAPk1^K42A (in Fig. 3m also with empty vector or Bcl-2b5), 48 h later infected with 100 MOI HA-Ad-Bik or HA-Ad-Bik^L61G, 24 h; lysates immunoprecipitated with anti-Flag antibodies; western blot (Fig. 3b, 3d, 3m). In general terms: A western blot detects proteins with antibodies after separation by electrophoresis.

Experiment [4] addresses T3, Flag-tagged DAPk1^K42A (UniProt P53355).
T3 sequence: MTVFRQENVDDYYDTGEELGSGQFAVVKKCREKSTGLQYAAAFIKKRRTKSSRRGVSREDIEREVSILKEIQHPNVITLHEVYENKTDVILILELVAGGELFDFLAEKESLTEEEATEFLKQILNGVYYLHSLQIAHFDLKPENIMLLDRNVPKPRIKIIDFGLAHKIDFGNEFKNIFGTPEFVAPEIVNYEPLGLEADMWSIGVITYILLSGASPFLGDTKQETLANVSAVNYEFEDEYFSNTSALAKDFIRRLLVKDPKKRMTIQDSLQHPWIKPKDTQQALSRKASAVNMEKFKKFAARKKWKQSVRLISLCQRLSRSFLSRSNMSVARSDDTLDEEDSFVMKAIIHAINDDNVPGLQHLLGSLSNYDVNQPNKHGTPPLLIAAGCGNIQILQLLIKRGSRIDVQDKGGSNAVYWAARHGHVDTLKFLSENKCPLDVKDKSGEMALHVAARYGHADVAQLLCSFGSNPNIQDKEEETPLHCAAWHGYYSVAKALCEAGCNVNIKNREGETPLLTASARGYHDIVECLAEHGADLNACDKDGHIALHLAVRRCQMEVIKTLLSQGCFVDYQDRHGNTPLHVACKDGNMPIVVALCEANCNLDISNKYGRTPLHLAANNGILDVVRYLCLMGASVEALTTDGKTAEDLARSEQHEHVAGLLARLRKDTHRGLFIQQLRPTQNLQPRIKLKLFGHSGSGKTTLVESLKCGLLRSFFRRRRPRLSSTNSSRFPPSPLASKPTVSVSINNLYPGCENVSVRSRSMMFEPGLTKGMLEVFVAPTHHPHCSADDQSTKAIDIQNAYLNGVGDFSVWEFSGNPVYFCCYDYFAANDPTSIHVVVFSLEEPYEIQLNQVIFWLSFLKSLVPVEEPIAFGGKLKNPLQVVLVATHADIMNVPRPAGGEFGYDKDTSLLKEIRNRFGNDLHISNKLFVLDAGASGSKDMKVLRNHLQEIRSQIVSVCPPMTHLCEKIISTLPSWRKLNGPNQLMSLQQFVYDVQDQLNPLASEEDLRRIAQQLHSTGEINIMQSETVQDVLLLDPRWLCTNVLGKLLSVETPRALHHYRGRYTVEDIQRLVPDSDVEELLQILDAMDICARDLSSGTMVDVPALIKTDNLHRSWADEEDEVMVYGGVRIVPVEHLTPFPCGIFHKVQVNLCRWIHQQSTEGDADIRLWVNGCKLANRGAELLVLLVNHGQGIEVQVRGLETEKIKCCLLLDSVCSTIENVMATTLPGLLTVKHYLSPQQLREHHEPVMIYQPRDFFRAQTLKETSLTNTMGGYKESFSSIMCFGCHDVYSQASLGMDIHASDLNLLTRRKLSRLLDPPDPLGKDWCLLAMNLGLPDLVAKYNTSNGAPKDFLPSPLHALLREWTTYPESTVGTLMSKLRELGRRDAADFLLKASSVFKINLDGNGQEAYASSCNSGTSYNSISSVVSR
The description is as above.

The target of experiment [5] is T4, Bak^WT, retrovirally expressed, Q16611.
T4 chain: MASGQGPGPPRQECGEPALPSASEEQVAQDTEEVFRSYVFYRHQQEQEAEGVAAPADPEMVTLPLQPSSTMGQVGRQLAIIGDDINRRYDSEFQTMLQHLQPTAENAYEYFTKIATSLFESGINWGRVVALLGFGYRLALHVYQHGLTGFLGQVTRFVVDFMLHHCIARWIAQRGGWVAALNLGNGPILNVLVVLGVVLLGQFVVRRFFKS
The experiment in a line: cross-linking; ER fractions of HCT116 cells transduced with Bak^WT or Bak^Y108A and infected with 100 MOI Ad-Bik; 5 mM BMH, 30 min, room temperature; SDS-PAGE, anti-Bak blot. The following applies: remark: other sources report otherwise.

For experiment [6], the target named is Bak^Y108A, retrovirally expressed (UniProt Q16611). Described as above.

Consider three molecules from article PMC5630627.

Residue numbers refer to the chain shown, from its start. Names may count otherwise. No constants are given. Whether binding was seen depends on the method and setting. Binding seen in cells or lysates may run through a third protein. Some entries that bind do so weakly or less than the wild type. For part of these data: Sequences can lack the tags named with a protein.

B1: Bak (endogenous) (protein, UniProt Q16611 1-211)
chain: T4 chain
As to B1, the binding entry in experiment [1], in experiment [2], in experiment [3] and in experiment [4] was “binds” each time.

B2: Bak^WT, retrovirally expressed, Q16611 1-211 (protein)
chain: T4 chain
For the molecule B2, the binding result in experiment [5] is on record as “binds”.

B3: Bak^Y108A, retrovirally expressed (protein, UniProt Q16611 1-211)
chain: T4 chain with Y108A
As to B3, the binding entry in experiment [6] is reported as “binds”.
